The record followed here is ChEMBL document CHEMBL1125549, “Computer-aided mapping of the beta-adrenoceptor. 1. Explanation for effect of para substitution on blocking activity at the beta-1-adrenoceptor” (J Med Chem, 1992).

Chains of the proteins cited; added tags and fusions are not shown.
UniProt B0FL73, whole entry: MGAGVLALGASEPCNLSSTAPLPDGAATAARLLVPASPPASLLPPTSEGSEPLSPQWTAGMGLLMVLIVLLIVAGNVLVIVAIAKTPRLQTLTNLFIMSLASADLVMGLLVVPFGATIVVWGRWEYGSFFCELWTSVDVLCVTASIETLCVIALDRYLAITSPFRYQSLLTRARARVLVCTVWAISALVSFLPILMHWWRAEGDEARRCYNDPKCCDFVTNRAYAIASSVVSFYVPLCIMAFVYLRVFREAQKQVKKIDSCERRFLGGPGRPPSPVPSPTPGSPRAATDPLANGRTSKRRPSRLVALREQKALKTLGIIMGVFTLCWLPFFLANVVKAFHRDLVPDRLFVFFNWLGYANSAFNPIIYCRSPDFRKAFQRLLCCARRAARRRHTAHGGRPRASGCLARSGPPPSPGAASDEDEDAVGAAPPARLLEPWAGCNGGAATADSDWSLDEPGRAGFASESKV

The target of this assay is Beta-1 adrenergic receptor (Cavia porcellus, UniProt B0FL73). The experiment in a line: Activity at beta-1 adrenergic receptor. The conditions noted are these: read-out: pA2 (converted).

On to `CC(C)NCC(O)COc1ccc(CC(N)=O)cc1` (stereo unspecified) [ATENOLOL], for which the Kb was 0.158 µM.
